Source: PubChem BioAssay AID1224830 (NIAID, 2016)
The deposit covers about 18,000 reagents; this is a random part of them. About 2,900 of them (16%) were called active. 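Calls are made per well; low scores hint the gene aids the LPS response, high scores that it dampens it.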 Repeated entries: four replicate wells of each siRNA pool.

Assay: 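Genes whose knock-down alters the TNF-alpha reporter response to LPS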 (primary screen)
System: human THP-1 monocytic leukaemia cells, TNF dual-luciferase reporter clone, PMA-differentiated to macrophage-like cells
Reagents: siRNA pool against human genes, 50 nM
Timing: LPS for 4 h, given about 3 days after siRNA transfection
Conditions: bacterial LPS (TLR4 ligand), 10 ng/ml
Measurement: 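Ratio of firefly to renilla light, scaled to the plate median and expressed as a robust z-score per replicate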
Scale: TNF reporter robust z-score: higher = stronger TNF reporter response to LPS
Rule for the call: 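Each well counts as active if its z-score is over 2.8 or under -1.5; controls are left without a call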

Gene | PubChem SID | TNF reporter robust z-score | Call
ADAM30 | SID315454589 | 0.06 | inactive
ADAM30 | SID315454589 | -0.66 | inactive
ADAM30 | SID315454589 | 0.16 | inactive
ADAM30 | SID315454589 | -0.33 | inactive
OR4F6 | SID315464654 | 4.49 | active
OR4F6 | SID315464654 | 3.31 | active
OR4F6 | SID315464654 | 0.75 | inactive
OR4F6 | SID315464654 | 1.25 | inactive
MTRF1 | SID315453424 | -0.76 | inactive
MTRF1 | SID315453424 | -0.58 | inactive
MTRF1 | SID315453424 | -0.5 | inactive
MTRF1 | SID315453424 | -0.73 | inactive
HIBADH | SID315454608 | -0.49 | inactive
HIBADH | SID315454608 | -0.46 | inactive
HIBADH | SID315454608 | -0.65 | inactive
HIBADH | SID315454608 | -1.47 | inactive
RND1 | SID315456009 | 1.05 | inactive
RND1 | SID315456009 | 2.69 | inactive
RND1 | SID315456009 | 1.65 | inactive
RND1 | SID315456009 | 2.34 | inactive
ARMC1 | SID315457451 | -0.81 | inactive
ARMC1 | SID315457451 | -0.78 | inactive
ARMC1 | SID315457451 | -1.23 | inactive
ARMC1 | SID315457451 | -0.83 | inactive
PDE4D | SID315450477 | 0.8 | inactive
PDE4D | SID315450477 | -0.52 | inactive
PDE4D | SID315450477 | -0.55 | inactive
PDE4D | SID315450477 | 0 | inactive
SYNRG | SID315454736 | 1.08 | inactive
SYNRG | SID315454736 | 1.06 | inactive
SYNRG | SID315454736 | 0.14 | inactive
SYNRG | SID315454736 | 1.31 | inactive
TDRKH | SID315454541 | 0.71 | inactive
TDRKH | SID315454541 | 0.02 | inactive
TDRKH | SID315454541 | 1.13 | inactive
TDRKH | SID315454541 | -0.56 | inactive
REEP3 | SID315463262 | -0.37 | inactive
REEP3 | SID315463262 | -0.14 | inactive
REEP3 | SID315463262 | -1.11 | inactive
REEP3 | SID315463262 | 0.95 | inactive
C4orf51 | SID315465115 | -0.1 | inactive
C4orf51 | SID315465115 | -0.03 | inactive
C4orf51 | SID315465115 | -0.04 | inactive
C4orf51 | SID315465115 | -0.05 | inactive
NSMCE2 | SID315463892 | 0.98 | inactive
NSMCE2 | SID315463892 | -1.07 | inactive
NSMCE2 | SID315463892 | 0.2 | inactive
NSMCE2 | SID315463892 | -0.26 | inactive
ZNF76 | SID315452228 | -1.11 | inactive
ZNF76 | SID315452228 | 0.87 | inactive
ZNF76 | SID315452228 | -1.14 | inactive
ZNF76 | SID315452228 | 0.1 | inactive
DMC1 | SID315454634 | 1.8 | inactive
DMC1 | SID315454634 | 0 | inactive
DMC1 | SID315454634 | -0.39 | inactive
DMC1 | SID315454634 | 0.21 | inactive
C1QL4 | SID315464000 | -0.23 | inactive
C1QL4 | SID315464000 | -0.35 | inactive
C1QL4 | SID315464000 | 0.27 | inactive
C1QL4 | SID315464000 | 0.67 | inactive
CADM2 | SID315463421 | -0.43 | inactive
CADM2 | SID315463421 | 0.88 | inactive
CADM2 | SID315463421 | -0.42 | inactive
CADM2 | SID315463421 | -1.08 | inactive
CMA1 | SID315447979 | -0.54 | inactive
CMA1 | SID315447979 | -0.42 | inactive
CMA1 | SID315447979 | 0.43 | inactive
CMA1 | SID315447979 | 1.89 | inactive
DECR1 | SID315448284 | -1.95 | active
DECR1 | SID315448284 | -1.01 | inactive
DECR1 | SID315448284 | 0.33 | inactive
DECR1 | SID315448284 | 0.63 | inactive

Sorted by “TNF reporter robust z-score” (high to low): some entries from above.
Gene | PubChem SID | TNF reporter robust z-score | Call
RND1 | SID315456009 | 2.69 | inactive
RND1 | SID315456009 | 2.34 | inactive
RND1 | SID315456009 | 1.65 | inactive
RND1 | SID315456009 | 1.05 | inactive
HIBADH | SID315454608 | -0.65 | inactive
ARMC1 | SID315457451 | -0.81 | inactive
HIBADH | SID315454608 | -1.47 | inactive

The results go on.
Gene | PubChem SID | TNF reporter robust z-score | Call
NPEPL1 | SID315459406 | 0 | inactive
NPEPL1 | SID315459406 | -0.31 | inactive
NPEPL1 | SID315459406 | 0.12 | inactive
NPEPL1 | SID315459406 | -0.98 | inactive
PPCS | SID315459407 | -0.19 | inactive
PPCS | SID315459407 | -0.08 | inactive
PPCS | SID315459407 | 0.22 | inactive
PPCS | SID315459407 | 0.7 | inactive
ZNF423 | SID315454982 | 0.16 | inactive
ZNF423 | SID315454982 | 1.27 | inactive
ZNF423 | SID315454982 | -0.46 | inactive
ZNF423 | SID315454982 | -0.09 | inactive
FBXL20 | SID315460610 | -0.98 | inactive
FBXL20 | SID315460610 | 0.53 | inactive
FBXL20 | SID315460610 | -0.91 | inactive
FBXL20 | SID315460610 | -0.01 | inactive
H1-6 | SID315449134 | 1.07 | inactive
H1-6 | SID315449134 | 0.49 | inactive
H1-6 | SID315449134 | 1.03 | inactive
H1-6 | SID315449134 | 1.06 | inactive
NKX2-3 | SID315462689 | -1.51 | active
NKX2-3 | SID315462689 | -0.99 | inactive
NKX2-3 | SID315462689 | -1.21 | inactive
NKX2-3 | SID315462689 | -1.04 | inactive
RBM26 | SID315458800 | -0.64 | inactive
RBM26 | SID315458800 | -0.52 | inactive
RBM26 | SID315458800 | -0.22 | inactive
RBM26 | SID315458800 | -1.37 | inactive
NUDT16L1 | SID315460318 | -0.88 | inactive
NUDT16L1 | SID315460318 | 2.34 | inactive
NUDT16L1 | SID315460318 | -0.39 | inactive
NUDT16L1 | SID315460318 | -0.16 | inactive
MELTF | SID315449955 | 1.34 | inactive
MELTF | SID315449955 | 0.51 | inactive
MELTF | SID315449955 | 0.55 | inactive
MELTF | SID315449955 | -0.13 | inactive
TSPAN14 | SID315459920 | -1.41 | inactive
TSPAN14 | SID315459920 | -0.55 | inactive
TSPAN14 | SID315459920 | -1.01 | inactive
TSPAN14 | SID315459920 | -0.01 | inactive
